Laboratory results published in PubChem BioAssay AID504467 (National Center for Advancing Translational Sciences (NCATS), 2011).
Hit rate of the full screen: of about 330,000 compounds, about 7,700 (2.3%) were called active. Inconclusive results, whose numbers are uncertain, are shown with a selection of clear calls. Calls come from the whole dose curve; as a rule, active = well fitted inhibition curve with a large enough effect; inconclusive = small, poorly fitted or top-dose-only effect, or effect the other way; inactive = flat fitted curve, though single readings scatter. Where the call is inconclusive, the potency comes from a doubtful curve fit.

Experiment: qHTS screen for small molecules that inhibit ELG1-dependent DNA repair in human embryonic kidney (HEK293T) cells expressing luciferase-tagged ELG1; note: nearly all actives have a fitted effect of over 55% in size
Conditions: HEK293T ELG1-luciferase reporter, luminescence, 16 h, DNA damage induced by 5-fluorouridine; activity change, negative = inhibition: at 46.1 µM (top of the series)
Outline: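 DMSO vehicle served as the neutral condition. Each well held 2,000 cells given 5-fluorouridine plus compound; after 16 hr at 37 °C/5% CO2, ONE-Glo was added and luciferase measured 30 min later.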
% is set by controls: 0 for no effect and ±100 for the full control effect; potency is the fitted concentration of half-maximal effect.

| Structure (SMILES) | Potency | activity change, negative = inhibition |
| --- | --- | --- |
| COc1ccc(OC)c(NC(=O)CSc2ncnc3c2cnn3-c2ccccc2Cl)c1 | active: 9.2 µM | – |
| Cc1oc2c(cc(NS(=O)(=O)c3ccc(C(C)C)cc3)c3ccccc32)c1C(=O)O | – | inactive: -7.25% |
| Cc1cccc(Oc2nc(CN3CCOCC3)nc3sc4c(c23)CCCC4)c1 | inconclusive: 23.1 µM [inhibitor, single point] | – |
| CN(C)S(=O)(=O)c1cccc(C(=O)Nc2ccc(S(=O)(=O)N3CCCC3)cc2)c1 | inconclusive: 18.3 µM [inhibitor, partial curve] | – |
| CCOC(=O)c1ccc2[nH]c3c(c2c1)CCCCC3=O | – | inactive: -14.9% |
| FC(F)(F)c1cccc(-c2noc(CN3CCOCC3)n2)c1 | inconclusive: 14.6 µM [activator, single point] | – |
| COc1ccc(-n2nnc3c(SCC(=O)NCC4CCCO4)ncnc32)cc1 (centres undefined) | – | inactive: 16.9% |
| COC(=O)c1ccc(N2CCC(c3cc(-c4ccc(OC)cc4)n[nH]3)CC2)c([N+](=O)[O-])c1 | inconclusive: 25.9 µM [inhibitor, partial curve, poor fit] | – |
| O=C(Cc1cccs1)NCc1ccc(Cl)cc1Cl | inconclusive: 11.6 µM [activator, partial curve] | – |
| COc1ccc(C(=O)c2sc3nc(C)cc(-c4cccs4)c3c2N)cc1OC | inconclusive: 23.1 µM [inhibitor, single point] | – |
| CCNC(=O)COC(=O)C1CCC(=O)N(c2ccc(OC)cc2)C1c1ccc(OC)cc1 (centres undefined) | inconclusive: 23.1 µM [activator, partial curve, poor fit] | – |
| O=C1N=c2ccccc2=C1c1sc(NS(=O)(=O)Cc2ccccc2)nc1O | – | inactive: 22.9% |
| COc1ccccc1NC(=O)CSCc1cc(=O)n2ccsc2n1 | – | inactive: 1.92% |
| O=C(CN1C(=O)/C(=C/c2ccc(F)cc2)SC1=S)N1CCN(CCc2ccccn2)CC1 | – | inactive: 3.97% |
| CCOC(=O)C1=C(CN2CCc3ccccc32)NC(=O)NC1c1cccc([N+](=O)[O-])c1 (centres undefined) | inconclusive: 16.4 µM [inhibitor, single point] | – |
| CCn1c(N2CCN(C(=S)NCCc3ccccc3)CC2)nc2ccccc21 | inconclusive: 29.1 µM [inhibitor, single point] | – |
| COc1ccc(N2C(=O)CCC(C(=O)c3ccccc3)=C2C)cc1 | inconclusive: 16.4 µM [inhibitor, partial curve] | – |
| Cc1ccc(C(=O)CSc2nnc(N)s2)c(C)c1 | inconclusive: 20.6 µM [activator, partial curve] | – |
| Cc1ccc(S(=O)(=O)Nc2cc(C)cn(Cc3ccccc3)c2=O)cc1 | inconclusive: 18.3 µM [inhibitor, partial curve] | – |
| CCc1ccc2[nH]c(=O)c(CN(Cc3ccccc3)Cc3nnnn3Cc3ccco3)cc2c1 | inconclusive: 18.4 µM [inhibitor, single point] | – |
| CN(Cc1nc2ccccc2c(=O)[nH]1)c1ccccc1 | – | inactive: 1.26% |
| Cc1ccc(C)c(CN2CCCN(C(=O)Cn3ncc4c3-c3ccccc3OC4)C2)c1 | inconclusive: 23.1 µM [inhibitor, partial curve] | – |
| COc1cc(-n2c(N)c(C(=O)NCc3ccco3)c3nc4ccccc4nc32)cc(OC)c1OC | – | inactive: -8.4% |

| Structure (SMILES) | Potency | activity change, negative = inhibition |
| --- | --- | --- |
| CCCCc1ccc(Nc2nc(N3CCOCC3)nc(N3CCOCC3)n2)cc1 | – | inactive: -18.8% |
| Cc1c(Br)c([N+](=O)[O-])nn1CCCC(=O)Nc1sc2c(c1C(N)=O)CCC(C)C2 (centres undefined) | inconclusive: 14.6 µM [inhibitor, partial curve, poor fit] | – |
| CC(C)[C@@H](CO)NC(=O)c1ccc2c3n(nc2c1)-c1ccc(Cl)cc1CO3 | inconclusive: 4.11 µM [activator, full curve] | – |
| COc1ccc(C(=O)NNS(=O)(=O)c2ccccc2)cc1 | inconclusive: 16.4 µM [activator, single point] | – |
| COc1cccc(CNC(=O)Cc2csc(NC(=O)Nc3ccccc3OC)n2)c1 | inconclusive: 20.6 µM [inhibitor, single point] | – |
| Cc1ccc2nc(Br)c3c(c2c1)OC(CBr)C3 (centres undefined) | – | inactive: -1.67% |
| COc1ccc(NC(=O)c2c(-c3ccccc3)noc2C)c(OC)c1 | inconclusive: 20.6 µM [inhibitor, single point] | – |
| O=C(Nc1cc(C(F)(F)F)ccc1-n1cncn1)c1ccc([N+](=O)[O-])o1 | inconclusive: 10.3 µM [inhibitor, single point] | – |
| CC(=O)c1cccc(OCC(=O)Nc2cccc(C(=O)Nc3c(C)n(C)n(-c4ccccc4)c3=O)c2)c1 | inconclusive: 20.6 µM [inhibitor, single point] | – |
| CC(=O)Nc1ccc(S(=O)(=O)N2CCN(c3nc4ccccc4n3CC(C)C)CC2)cc1 | inconclusive: 20.6 µM [inhibitor, single point] | – |
| COc1ccc(-c2nc(CS(=O)(=O)CC(=O)NCc3ccccc3OC)c(C)o2)cc1 | – | inactive: 5.42% |
| Cc1cccc(NC(=O)CSc2nnnn2-c2ccc3c(c2)OCCO3)n1 | inconclusive: 23.1 µM [inhibitor, single point] | – |
| O=C(NCCCN1CCOCC1)c1ccc2c(=O)n(Cc3cccc(Br)c3)c(=S)[nH]c2c1 | – | inactive: -4.24% |
| C/C(=N/NC(=O)c1ccc(C)s1)c1ccncc1 | inconclusive: 11.6 µM [activator, partial curve] | – |
| CCc1ccc(-c2cc3c(=O)n(CC(=O)NCCCN4CCN(C)CC4)ncn3n2)cc1 | inconclusive: 7.3 µM [activator, partial curve] | – |
| CCCCSc1nc(N)c(C#N)c(-c2cccs2)c1C#N | inconclusive: 8.2 µM [inhibitor, single point] | – |
| CCOC(=O)c1c(NC(=O)C(C)OC(=O)c2ccc(NC(=O)CC#N)cc2)sc2c1CCCC2 (centres undefined) | inconclusive: 25.9 µM [inhibitor, single point] | – |
| CCNC(=O)n1nccc1C(C)Oc1ccccc1 (centres undefined) | inconclusive: 15.8 µM [activator, single point] | – |
| COc1ccccc1-c1ocnc1C(=O)Nc1ccc(N2CCOCC2)cc1N1CCOCC1 | inconclusive: 18.3 µM [inhibitor, single point] | – |
| CCOC(=O)C1=C(COC(=O)Cc2ccccc2F)NC(=O)NC1C (centres undefined) | – | inactive: 29.3% |
| O=C(Nc1ccc(Oc2ccc(S(=O)(=O)N3CCOCC3)cn2)cc1)c1ccco1 | inconclusive: 18.4 µM [inhibitor, partial curve, poor fit] | – |
| C[C@H](NC(=O)c1nc[nH]c1C(=O)N[C@@H](CCCCNC(=O)OC(C)(C)C)C(=O)OC(C)(C)C)C(=O)OC(C)(C)C | inconclusive: 29.1 µM [inhibitor, single point] | – |
| CN(c1ccccc1)S(=O)(=O)c1cccc(NC(=O)COc2cccc([N+](=O)[O-])c2)c1 | – | inactive: -28.2% |

| Structure (SMILES) | Potency | activity change, negative = inhibition |
| --- | --- | --- |
| O=C(Nc1ccc2c(c1)OCO2)c1ccc(Br)s1 | inconclusive: 4.61 µM [activator, partial curve] | – |
| COCCNC(=O)CN(C)S(=O)(=O)c1ccc2c(c1)OCCO2 | inconclusive: 18.4 µM [inhibitor, partial curve, poor fit] | – |
| C/C(=N\NC(=O)C1COc2ccccc2O1)c1cccs1 (centres undefined) | inconclusive: 18.4 µM [activator, single point] | – |
| COc1ccc(Oc2nc3c(c(=O)n(C)c(=O)n3C)n2C)cc1 | active: 9.2 µM | – |
| Nc1c2c(nc3ccn(-c4ccccc4)c(=O)c13)CCCCC2 | inconclusive: 16.4 µM [activator, partial curve] | – |
| CCn1c(=O)cc(SCC(=O)NCc2cccnc2)c2ccccc21 | inconclusive: 13 µM [activator, partial curve] | – |
| COc1c2ccoc2nc2c(OC)cccc12 | inconclusive: 20.6 µM [activator, single point] | – |
| Cc1nnc2ccc(-c3ccc(NS(=O)(=O)c4ccccc4)cc3)nn12 | inconclusive: 14.6 µM [activator, partial curve, poor fit] | – |
| Fc1ccc(NC(=S)N2CCN(C/C=C/c3ccccc3)CC2)c(F)c1 | inconclusive: 32.6 µM [inhibitor, single point] | – |
| Cc1ccc(C2=NOC(=O)/C2=C\c2ccc(C)o2)cc1 | inconclusive: 23.1 µM [activator, partial curve] | – |
| COc1ccc(/C=N/OCC(=O)Nc2nc3ccccc3s2)cc1OC | – | inactive: -4.25% |
| O=c1c(Cc2ccccc2)c(O)ccn1C1CCCCCCC1 | – | inactive: 0% |
| COc1ccc(CNC(=O)c2ccc(NC(=O)C3CCCO3)cc2)cc1 (centres undefined) | – | inactive: 5.83% |
| COc1ccc(CN2C(=O)c3cccnc3C2=O)cc1S(=O)(=O)NCc1ccco1 | – | inactive: 0% |
| O=C(NCCc1csc(-c2ccccc2)n1)c1cccs1 | – | inactive: -3.43% |
| CC1CC(C)CN(C(=O)CCNS(=O)(=O)c2cccs2)C1 (centres undefined) | inconclusive: 18.4 µM [activator, single point] | – |
| Cc1ccc(NC(=O)COC(=O)c2ccccc2Nc2ccccc2)cc1 | – | inactive: 4.86% |
| COc1ccc(CNCC(O)(c2ccc(F)cc2)c2ccc(F)cc2)cc1 | inconclusive: 14.6 µM [inhibitor, single point] | – |
| Cn1nccc1C(=O)N1CCC(Cc2ccccc2)CC1 | – | inactive: -11.2% |
| COc1cccc(CN2CCN(Cc3nc(-c4cccc(F)c4F)oc3C)CC2=O)c1 | inconclusive: 29.1 µM [inhibitor, single point] | – |
| O=C(CSc1nc2ccc(Cl)cc2[nH]1)NC1CCCc2ccccc21 (centres undefined) | inconclusive: 29.1 µM [inhibitor, single point] | – |
| COc1cc(CN2CCN(Cc3ccc(C)cc3)C(CCO)C2)cc(OC)c1O (centres undefined) | – | inactive: 4.91% |
| O=C(NNC(=O)C12CC3CC(CC(C3)C1)C2)c1ccccc1F | – | inactive: 6.65% |

14 compounds already listed, sorted by length of the SMILES, low to high:

| Structure (SMILES) | Potency | activity change, negative = inhibition |
| --- | --- | --- |
| CCNC(=O)n1nccc1C(C)Oc1ccccc1 (centres undefined) | inconclusive: 15.8 µM [activator, single point] | – |
| Cc1ccc(C(=O)CSc2nnc(N)s2)c(C)c1 | inconclusive: 20.6 µM [activator, partial curve] | – |
| C/C(=N/NC(=O)c1ccc(C)s1)c1ccncc1 | inconclusive: 11.6 µM [activator, partial curve] | – |
| O=c1c(Cc2ccccc2)c(O)ccn1C1CCCCCCC1 | – | inactive: 0% |
| CCn1c(=O)cc(SCC(=O)NCc2cccnc2)c2ccccc21 | inconclusive: 13 µM [activator, partial curve] | – |
| COc1ccc(NC(=O)c2c(-c3ccccc3)noc2C)c(OC)c1 | inconclusive: 20.6 µM [inhibitor, single point] | – |
| O=C(CSc1nc2ccc(Cl)cc2[nH]1)NC1CCCc2ccccc21 (centres undefined) | inconclusive: 29.1 µM [inhibitor, single point] | – |
| COc1ccc(CNCC(O)(c2ccc(F)cc2)c2ccc(F)cc2)cc1 | inconclusive: 14.6 µM [inhibitor, single point] | – |
| Cc1cccc(Oc2nc(CN3CCOCC3)nc3sc4c(c23)CCCC4)c1 | inconclusive: 23.1 µM [inhibitor, single point] | – |
| O=C(Nc1ccc(Oc2ccc(S(=O)(=O)N3CCOCC3)cn2)cc1)c1ccco1 | inconclusive: 18.4 µM [inhibitor, partial curve, poor fit] | – |
| CC(C)[C@@H](CO)NC(=O)c1ccc2c3n(nc2c1)-c1ccc(Cl)cc1CO3 | inconclusive: 4.11 µM [activator, full curve] | – |
| CN(C)S(=O)(=O)c1cccc(C(=O)Nc2ccc(S(=O)(=O)N3CCCC3)cc2)c1 | inconclusive: 18.3 µM [inhibitor, partial curve] | – |
| Cc1c(Br)c([N+](=O)[O-])nn1CCCC(=O)Nc1sc2c(c1C(N)=O)CCC(C)C2 (centres undefined) | inconclusive: 14.6 µM [inhibitor, partial curve, poor fit] | – |
| CC(=O)c1cccc(OCC(=O)Nc2cccc(C(=O)Nc3c(C)n(C)n(-c4ccccc4)c3=O)c2)c1 | inconclusive: 20.6 µM [inhibitor, single point] | – |
